Source: doi:10.1101/2020.12.25.424096
These are yes or no findings as the source states them, for the method shown. Binding calls can cover weak binding; strength is not graded here.

Molecular target: T1, C1 esterase inhibitor (C1-Inh) (UniProt P05155)
T1 sequence: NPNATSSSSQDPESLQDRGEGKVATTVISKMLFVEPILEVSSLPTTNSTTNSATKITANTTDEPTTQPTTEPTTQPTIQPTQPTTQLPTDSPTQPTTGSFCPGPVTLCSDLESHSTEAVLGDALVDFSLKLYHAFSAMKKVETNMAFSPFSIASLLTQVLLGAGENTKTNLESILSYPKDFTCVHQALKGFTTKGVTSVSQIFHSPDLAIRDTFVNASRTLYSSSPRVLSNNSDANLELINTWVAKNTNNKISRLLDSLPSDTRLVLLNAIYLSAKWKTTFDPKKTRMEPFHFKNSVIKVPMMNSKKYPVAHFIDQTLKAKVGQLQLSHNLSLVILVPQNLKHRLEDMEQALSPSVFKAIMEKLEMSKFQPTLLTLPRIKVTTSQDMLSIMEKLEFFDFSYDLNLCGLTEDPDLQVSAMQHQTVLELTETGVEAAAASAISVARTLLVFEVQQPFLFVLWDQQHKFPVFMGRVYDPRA
Assay: ELISA

For “passenger domain of Vag8 (Vag8p), recombinant Vag8 protein (from UniProt Q79GN7) (domain or fragment)”, the binding was “binds”.
